Reference: US9791451B2, “Squaraine based fluorescent probe and a process for the preparation thereof” (Council of Scientific & Industrial Research, priority 2013, dated 2017)

Test: Reversibility of noncovalent and covalent dye-albumin interaction in acid/base cycles
Format: physicochemical

1:6 Sq-BSA complex: complex of squaraine dye Sq with BSA protein in ratio 1:6
number of acid-base cycles with switching observed (pH 5.8 to 7.4): at least for four cycles | reversibility of noncovalent/covalent interaction (pH 5.8 to 7.4, acid/base additions, 700 nm and 480 nm emission): highly reversible
